Results published in US20170174789A1.
These are yes or no findings as the source states them, for the method shown. Some entries that bind do so weakly or less than the wild type.

Sequences of proteins named here, by UniProt entry; tags and fusion partners are left off. Residues count along the entry.
UniProt Q15389, residues 20-498: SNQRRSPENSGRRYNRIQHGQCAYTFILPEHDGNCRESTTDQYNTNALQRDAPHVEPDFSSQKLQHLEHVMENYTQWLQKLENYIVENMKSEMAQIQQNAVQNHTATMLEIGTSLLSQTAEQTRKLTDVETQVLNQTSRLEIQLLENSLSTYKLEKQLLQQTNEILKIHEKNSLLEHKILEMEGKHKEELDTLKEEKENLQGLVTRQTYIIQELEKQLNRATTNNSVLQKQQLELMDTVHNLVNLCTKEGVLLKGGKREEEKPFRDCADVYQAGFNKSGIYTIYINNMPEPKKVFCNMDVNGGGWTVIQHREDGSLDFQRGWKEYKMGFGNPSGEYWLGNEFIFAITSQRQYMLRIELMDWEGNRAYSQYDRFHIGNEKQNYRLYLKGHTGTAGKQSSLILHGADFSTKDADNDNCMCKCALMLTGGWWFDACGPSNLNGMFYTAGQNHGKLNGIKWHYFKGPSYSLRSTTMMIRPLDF

Molecular target: hTie2-mFc (human)
Assay: Octet Red biosensor, hTie2.mFc captured on anti-mFc tips, 100 nM angiopoietin for 5 min; some tips first saturated with 300 nM H4H2055N or Control I

- binding: binds
Substance: hAng1 (from UniProt Q15389 20-498) (ligand)
